Experiment [1] deals with T1, Flag-TCAF1 (human) (UniProt Q9Y4C2).
T1 sequence: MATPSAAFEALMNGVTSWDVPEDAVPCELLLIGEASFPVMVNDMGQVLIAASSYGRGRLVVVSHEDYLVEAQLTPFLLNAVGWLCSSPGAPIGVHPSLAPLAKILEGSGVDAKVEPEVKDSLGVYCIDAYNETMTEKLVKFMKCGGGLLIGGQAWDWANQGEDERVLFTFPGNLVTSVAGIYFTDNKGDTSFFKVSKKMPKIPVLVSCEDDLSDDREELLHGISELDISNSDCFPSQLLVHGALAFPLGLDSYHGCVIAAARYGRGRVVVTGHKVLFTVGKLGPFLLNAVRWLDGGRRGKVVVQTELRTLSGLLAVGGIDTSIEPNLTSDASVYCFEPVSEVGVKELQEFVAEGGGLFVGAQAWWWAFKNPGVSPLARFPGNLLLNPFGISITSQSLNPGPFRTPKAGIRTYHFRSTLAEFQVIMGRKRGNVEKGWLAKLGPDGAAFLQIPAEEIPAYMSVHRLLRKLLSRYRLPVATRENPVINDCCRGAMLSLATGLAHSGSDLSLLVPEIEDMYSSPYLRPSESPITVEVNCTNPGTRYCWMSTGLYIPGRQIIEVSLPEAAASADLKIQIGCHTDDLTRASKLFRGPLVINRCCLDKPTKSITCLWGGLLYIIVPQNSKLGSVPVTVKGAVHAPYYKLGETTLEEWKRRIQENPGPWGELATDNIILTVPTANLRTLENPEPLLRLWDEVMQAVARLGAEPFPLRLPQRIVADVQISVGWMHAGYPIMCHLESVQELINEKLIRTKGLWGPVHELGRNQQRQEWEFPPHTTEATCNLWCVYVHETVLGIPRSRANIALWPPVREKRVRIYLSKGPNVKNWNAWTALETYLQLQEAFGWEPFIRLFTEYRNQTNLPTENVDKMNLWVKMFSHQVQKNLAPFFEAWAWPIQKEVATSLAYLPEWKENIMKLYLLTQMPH
Put plainly: proximity ligation; HeLa cells expressing the two tagged proteins, fixed with 4% paraformaldehyde, permeabilised with 0.2% Triton X-100; Duolink PLUS and MINUS probes; cells untreated or treated with plasmid DNA (2 ug/ml, 7 h), cGAMP (5 ug/ml, 7 h), HU or MnCl2, with control or TCAF1 knockdown.

Amino acid sequences for entries named in this document (tags omitted).
UniProt Q86WV6: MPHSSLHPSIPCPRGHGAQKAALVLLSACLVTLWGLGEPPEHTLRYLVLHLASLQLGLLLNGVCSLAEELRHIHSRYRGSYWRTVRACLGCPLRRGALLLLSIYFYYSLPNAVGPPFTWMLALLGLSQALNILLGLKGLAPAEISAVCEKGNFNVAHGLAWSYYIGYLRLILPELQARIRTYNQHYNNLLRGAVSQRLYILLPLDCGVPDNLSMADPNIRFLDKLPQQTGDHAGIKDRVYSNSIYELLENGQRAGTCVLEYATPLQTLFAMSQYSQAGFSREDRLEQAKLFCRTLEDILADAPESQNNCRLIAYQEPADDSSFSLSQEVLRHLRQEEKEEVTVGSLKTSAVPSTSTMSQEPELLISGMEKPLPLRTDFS

Experiment [2] addresses T1, Flag-TCAF1 (human). Nature of the experiment: co-IP; 293T cells; lysate on anti-Flag M2 magnetic beads, 1.5 h, 4 C; lysis buffer 10 mM NaKPO4 pH 7.2, 150 mM NaCl, 1% sodium deoxycholate, 1% Triton X-100; also with STING knockdown or TRPV2 knockdown.

Consider two substances from PMC11139906.

No constants are given. Whether binding was seen depends on the method and setting. Binding seen in cells or lysates may run through a third protein. Some binding calls cover weakened binding; strength is not graded here. Tags and fused reporters may be left off the sequences shown.

STING-HA (from UniProt Q86WV6 1-379): in the experiment with Flag-TCAF1 (human) [1], the binding result is given as “binds”.
For the substance “STING(WT)-HA (from UniProt Q86WV6 1-379)”, the binding result with Flag-TCAF1 (human) [2] was “binds”.
